The values below come from patent US20260306428A1 (The Trustees of Indiana University, priority 2023, published 2026).

The conditions of data set [1]: treated minipigs.
The test system of data set [2] is surgically induced joint instability. As to conditions: mouse and non-human primate; cited from earlier work.

`CN(C)C(=N)NC(=N)N.Cl` [metformin, 1,1-dimethylbiguanide hydrochloride]: in data set [1], the “changes in blood serum markers related to hypoglycemia and renal and hepatic toxicity” value was “not expected”. Further, the “prevention or delay of onset of OA” value in data set [2] is recorded as “effective at preventing or delaying the onset of OA”.
